Taken from: PubChem BioAssay AID652272 (Drosophila RNAi Screening Center, 2013)
The deposit covers about 21,000 reagents; this is an unselected part of those that have a named target and a result. Of all reagents, 503 (2.4%) got an active call. 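Raw plate light values, not normalised; calls rest on replicate z-scores that were not deposited; hits include reporter decreases as well as increases.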 Unmarked entries are inactive. Reagents against one gene are numbered here. Reagent sequences are not shown. Not given: the amount of reagent, the time to read-out.

- Aim: 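Finding fly genes that regulate Hedgehog signal transduction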 (primary screen)
- System: Drosophila clone 8 (Cl8) cells
- Reagents: long dsRNA against Drosophila genes
- Measurement: 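Plate reader light from a firefly reporter under a ptc promoter fragment that responds to Hedgehog, with Renilla light as transfection reference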
- Reading the numbers: firefly Hh reporter signal: higher = more ptc reporter light; Renilla reference signal: higher = more Renilla control light
- Hit rule: 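Hit when the z-score averaged over two replicates is under -2 or over +3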
- Calls: active = hit: reporter lowered or raised; inactive = not a hit

CG16984 | firefly Hh reporter signal, replicate 1 = 74960; firefly Hh reporter signal, replicate 2 = 52711; Renilla reference signal, replicate 1 = 2160; Renilla reference signal, replicate 2 = 4039
CG8248 | firefly Hh reporter signal, replicate 1 = 75562; firefly Hh reporter signal, replicate 2 = 41989; Renilla reference signal, replicate 1 = 3013; Renilla reference signal, replicate 2 = 1853
Den1 (Deneddylase 1) | firefly Hh reporter signal, replicate 1 = 1.24e5; firefly Hh reporter signal, replicate 2 = 58042; Renilla reference signal, replicate 1 = 2857; Renilla reference signal, replicate 2 = 4389
fid (fire dancer) #1 | firefly Hh reporter signal, replicate 1 = 4.16e5; firefly Hh reporter signal, replicate 2 = 82550; Renilla reference signal, replicate 1 = 23265; Renilla reference signal, replicate 2 = 6225
fid (fire dancer) #2 | firefly Hh reporter signal, replicate 1 = 5.04e5; firefly Hh reporter signal, replicate 2 = 1.10e5; Renilla reference signal, replicate 1 = 27378; Renilla reference signal, replicate 2 = 10123
CG6184 | firefly Hh reporter signal, replicate 1 = 4.88e5; firefly Hh reporter signal, replicate 2 = 98577; Renilla reference signal, replicate 1 = 27664; Renilla reference signal, replicate 2 = 3805
Vajk2 | firefly Hh reporter signal, replicate 1 = 1.50e5; firefly Hh reporter signal, replicate 2 = 76950; Renilla reference signal, replicate 1 = 4189; Renilla reference signal, replicate 2 = 7712
EndoB (Endophilin B) | firefly Hh reporter signal, replicate 1 = 81607; firefly Hh reporter signal, replicate 2 = 43820; Renilla reference signal, replicate 1 = 2388; Renilla reference signal, replicate 2 = 4103
Pus7 (Pseudouridine synthase 7) | firefly Hh reporter signal, replicate 1 = 22322; firefly Hh reporter signal, replicate 2 = 56864; Renilla reference signal, replicate 1 = 2557; Renilla reference signal, replicate 2 = 4129
Grip75 | firefly Hh reporter signal, replicate 1 = 73228; firefly Hh reporter signal, replicate 2 = 49248; Renilla reference signal, replicate 1 = 2503; Renilla reference signal, replicate 2 = 4725
abd-A (abdominal A) #1 | firefly Hh reporter signal, replicate 1 = 37467; firefly Hh reporter signal, replicate 2 = 1.34e5; Renilla reference signal, replicate 1 = 6812; Renilla reference signal, replicate 2 = 3083
abd-A (abdominal A) #2 | firefly Hh reporter signal, replicate 1 = 23905 (active); firefly Hh reporter signal, replicate 2 = 10880; Renilla reference signal, replicate 1 = 1173; Renilla reference signal, replicate 2 = 612
Xbp1 (X box binding protein-1) | firefly Hh reporter signal, replicate 1 = 7.15e5; firefly Hh reporter signal, replicate 2 = 1.46e5; Renilla reference signal, replicate 1 = 6587; Renilla reference signal, replicate 2 = 6587
tipE (temperature-induced paralytic E) | firefly Hh reporter signal, replicate 1 = 96754; firefly Hh reporter signal, replicate 2 = 44248; Renilla reference signal, replicate 1 = 3939; Renilla reference signal, replicate 2 = 2048
CG13589 | firefly Hh reporter signal, replicate 1 = 1.10e5; firefly Hh reporter signal, replicate 2 = 99627; Renilla reference signal, replicate 1 = 2771; Renilla reference signal, replicate 2 = 8204
Spt3 | firefly Hh reporter signal, replicate 1 = 1.02e5; firefly Hh reporter signal, replicate 2 = 91453; Renilla reference signal, replicate 1 = 3621; Renilla reference signal, replicate 2 = 3000
Orc2 (Origin recognition complex subunit 2) | firefly Hh reporter signal, replicate 1 = 1.09e5; firefly Hh reporter signal, replicate 2 = 89394; Renilla reference signal, replicate 1 = 4228; Renilla reference signal, replicate 2 = 3776
CG13775 | firefly Hh reporter signal, replicate 1 = 1.18e5; firefly Hh reporter signal, replicate 2 = 50762; Renilla reference signal, replicate 1 = 2998; Renilla reference signal, replicate 2 = 3632
CG32533 #1 | firefly Hh reporter signal, replicate 1 = 1.17e5; firefly Hh reporter signal, replicate 2 = 95062; Renilla reference signal, replicate 1 = 2944; Renilla reference signal, replicate 2 = 1607
CG32533 #2 | firefly Hh reporter signal, replicate 1 = 85264; firefly Hh reporter signal, replicate 2 = 1.36e5; Renilla reference signal, replicate 1 = 3153; Renilla reference signal, replicate 2 = 5808
CG2065 | firefly Hh reporter signal, replicate 1 = 1.28e5 (active); firefly Hh reporter signal, replicate 2 = 89384; Renilla reference signal, replicate 1 = 2006; Renilla reference signal, replicate 2 = 5315

Reformatted: 2 of the entries above.
{"target gene":"CG6184","reagent no.":1,"firefly Hh reporter signal, replicate 1":4.88e5,"firefly Hh reporter signal, replicate 2":98577,"Renilla reference signal, replicate 1":27664,"Renilla reference signal, replicate 2":3805}
{"target gene":"Vajk2","reagent no.":1,"firefly Hh reporter signal, replicate 1":1.50e5,"firefly Hh reporter signal, replicate 2":76950,"Renilla reference signal, replicate 1":4189,"Renilla reference signal, replicate 2":7712}
